Test results from patent US6281214A, “Biphenyl derivatives” (Eisai Co., Ltd, priority 1994, dated 2001).

Target: adrenergic α1 receptor
Test: adrenergic α1 receptor binding test ([3H] Prazosin Binding Test)
Set-up: species or system SD rats
Conditions: 1 nM [3H] Prazosin, rat cortex, room temperature, 60 minutes
Method: The compounds of the present invention were subjected to each of serotonin S2 receptor binding test, dopamine D2 receptor binding test and adrenergic α1 receptor binding test.
The following reagents were used in this test.
These reagents and samples were each dissolved in 10% ethanol before use. Among them, water-insoluble compounds were each dissolved in ethanol and the obtained solution was diluted with distilled water to an ethanol concentration of 10%. Further, Methylsergide maleate was used in a state dissolved in distilled water.
SD rats aged 6 to 8 weeks were used.
SD rats were each slaughtered with a guillotine to extirpate its cerebrum. The cortex and corpus striatum were separated from the cerebrum. The former was used in serotonin S2 receptor binding test and adrenergic α1, receptor binding test, while the latter was used in dopamine D2 receptor binding test. […]
Each IC50 value was calculated by the probit method and each Ki value was determined by the following formula: [formula]
In the above formula, C represents the concentration of radioligand, and Kd represents the affinity of radioligand for the receptor as determined by the Scatchard analysis. […]
This test was conducted in the same manner as that of the binding test of [^3 H] […] Prazosin at room temperature for 60 minutes and that the binding detected in the presence of 10 μl of Phentolamine was regarded as nonspecific binding.

With `Cc1nc2n(c(=O)c1CCN1CCC(c3noc4cc(F)ccc34)CC1)CCCC2` [Risperidone, risperidone] the Ki was 2.94 nM.
